# Patent publication US6426229B1, “Chelating agent and detergent comprising the same” (Mitsubishi Rayon Co., Ltd., priority 1995, dated 2002)
# Test system: activated sludge
# Experiment: Biodegradability test, amended SCAS method (302A Modified SCAS Test, OECD guideline)
# Details: supernatant liquid
structure (smiles),measurement,value
O=C([O-])CN(CCN(CC(=O)[O-])CC(=O)[O-])CC(=O)[O-].[Na+].[Na+].[Na+].[Na+] [Tetrasodium ethylenediaminetetraacetate],Retention rate by HPLC (%),100%
same,Retention rate by TOC (%),100%
